{"source": "PubChem BioAssay AID1224828 (NIAID, 2016)", "assay": "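Regulators linking TLR4 signalling to p65 nuclear translocation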 (primary screen)", "cell system": "mouse RAW264.7 G9 macrophage reporter cells (GFP-p65, Tnf promoter-mCherry)", "reagents": "siRNA pool against mouse genes, 100 nM", "duration": "2 days siRNA transfection, then 40 min LPS before fixation", "treatment": "LPS (Salmonella minnesota R595) at 10 ng/ml", "measured": "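Imaged p65 nuclear translocation ratio, normalised to the plate median, converted to robust z-scores and averaged across two replicates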", "scale": "p65 translocation robust z-score: higher = more nuclear NF-kappaB p65 after LPS than the plate median; nuclear/cytoplasmic p65 ratio: higher = more nuclear NF-kappaB p65", "active means": "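Active if robust z is above 3.3 (negative regulators) or below -1.56, the Tlr4 control median (positive regulators); activity score 50 or more; control wells not called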", "meaning of the calls": "active = hit (p65 shift raised or lowered); inactive = no clear change", "note": "Here is an unselected part of about 17,000 reagents. Over the whole deposit, 762 (4.5%) got an active call. 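Active calls include both raised and lowered p65 entry, mostly lowered; wells with fewer than 50 cells lack a z-score.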 The raw values are shown without normalisation. The numbers tell different reagents against one gene apart."}
{"Gene": "Ddit4", "reagent no.": 1, "nuclear/cytoplasmic p65 ratio, rep 1": 1.36, "nuclear/cytoplasmic p65 ratio, rep 2": 1.56, "low cell count flag": "fewer than 50 cells per well; well left out of scoring", "activity call": "inactive"}
{"Gene": "Xpa", "reagent no.": 1, "p65 translocation robust z-score": -1.91, "nuclear/cytoplasmic p65 ratio, rep 1": 1.26, "nuclear/cytoplasmic p65 ratio, rep 2": 1.37, "low cell count flag": "enough cells to score", "activity call": "active"}
{"Gene": "Rrs1", "reagent no.": 1, "p65 translocation robust z-score": -0.63, "nuclear/cytoplasmic p65 ratio, rep 1": 1.34, "nuclear/cytoplasmic p65 ratio, rep 2": 1.13, "low cell count flag": "enough cells to score", "activity call": "inactive"}
{"Gene": "Dgat1", "reagent no.": 1, "p65 translocation robust z-score": -0.15, "nuclear/cytoplasmic p65 ratio, rep 1": 1.51, "nuclear/cytoplasmic p65 ratio, rep 2": 1.34, "low cell count flag": "enough cells to score", "activity call": "inactive"}
{"Gene": "Map3k20", "reagent no.": 1, "p65 translocation robust z-score": -1.23, "nuclear/cytoplasmic p65 ratio, rep 1": 1.58, "nuclear/cytoplasmic p65 ratio, rep 2": 1.16, "low cell count flag": "enough cells to score", "activity call": "inactive"}
{"Gene": "Or52s1", "reagent no.": 1, "p65 translocation robust z-score": -0.8, "nuclear/cytoplasmic p65 ratio, rep 1": 1.35, "nuclear/cytoplasmic p65 ratio, rep 2": 1.16, "low cell count flag": "enough cells to score", "activity call": "inactive"}
{"Gene": "Rwdd2a", "reagent no.": 1, "p65 translocation robust z-score": -0.04, "nuclear/cytoplasmic p65 ratio, rep 1": 1.39, "nuclear/cytoplasmic p65 ratio, rep 2": 1.21, "low cell count flag": "enough cells to score", "activity call": "inactive"}
{"Gene": "Pkn1", "reagent no.": 1, "p65 translocation robust z-score": 1.72, "nuclear/cytoplasmic p65 ratio, rep 1": 1.82, "nuclear/cytoplasmic p65 ratio, rep 2": 1.59, "low cell count flag": "enough cells to score", "activity call": "inactive"}
{"Gene": "Ikbip", "reagent no.": 1, "p65 translocation robust z-score": -0.37, "nuclear/cytoplasmic p65 ratio, rep 1": 1.31, "nuclear/cytoplasmic p65 ratio, rep 2": 1.41, "low cell count flag": "enough cells to score", "activity call": "inactive"}
{"Gene": "Ikbip", "reagent no.": 2, "p65 translocation robust z-score": 0.9, "nuclear/cytoplasmic p65 ratio, rep 1": 1.57, "nuclear/cytoplasmic p65 ratio, rep 2": 1.48, "low cell count flag": "enough cells to score", "activity call": "inactive"}
{"Gene": "Ifitm5", "reagent no.": 1, "p65 translocation robust z-score": -0.43, "nuclear/cytoplasmic p65 ratio, rep 1": 1.48, "nuclear/cytoplasmic p65 ratio, rep 2": 1.39, "low cell count flag": "enough cells to score", "activity call": "inactive"}
{"Gene": "Ncaph2", "reagent no.": 1, "p65 translocation robust z-score": -0.59, "nuclear/cytoplasmic p65 ratio, rep 1": 1.4, "nuclear/cytoplasmic p65 ratio, rep 2": 1.78, "low cell count flag": "enough cells to score", "activity call": "inactive"}
{"Gene": "Fcer1a", "reagent no.": 1, "p65 translocation robust z-score": -0.26, "nuclear/cytoplasmic p65 ratio, rep 1": 1.41, "nuclear/cytoplasmic p65 ratio, rep 2": 1.35, "low cell count flag": "enough cells to score", "activity call": "inactive"}
{"Gene": "Nup98", "reagent no.": 1, "p65 translocation robust z-score": 2.78, "nuclear/cytoplasmic p65 ratio, rep 1": 2.38, "nuclear/cytoplasmic p65 ratio, rep 2": 2.02, "low cell count flag": "enough cells to score", "activity call": "inactive"}
{"Gene": "Gnl1", "reagent no.": 1, "p65 translocation robust z-score": 1.35, "nuclear/cytoplasmic p65 ratio, rep 1": 1.85, "nuclear/cytoplasmic p65 ratio, rep 2": 1.73, "low cell count flag": "enough cells to score", "activity call": "inactive"}
{"Gene": "Pkig", "reagent no.": 1, "p65 translocation robust z-score": -0.85, "nuclear/cytoplasmic p65 ratio, rep 1": 1.38, "nuclear/cytoplasmic p65 ratio, rep 2": 1.3, "low cell count flag": "enough cells to score", "activity call": "inactive"}
{"Gene": "Lce1h", "reagent no.": 1, "p65 translocation robust z-score": -0.5, "nuclear/cytoplasmic p65 ratio, rep 1": 1.34, "nuclear/cytoplasmic p65 ratio, rep 2": 1.19, "low cell count flag": "enough cells to score", "activity call": "inactive"}
{"Gene": "Chchd3", "reagent no.": 1, "p65 translocation robust z-score": -0.26, "nuclear/cytoplasmic p65 ratio, rep 1": 1.56, "nuclear/cytoplasmic p65 ratio, rep 2": 1.73, "low cell count flag": "enough cells to score", "activity call": "inactive"}
{"Gene": "B3gnt2", "reagent no.": 1, "p65 translocation robust z-score": -0.97, "nuclear/cytoplasmic p65 ratio, rep 1": 1.39, "nuclear/cytoplasmic p65 ratio, rep 2": 1.54, "low cell count flag": "enough cells to score", "activity call": "inactive"}
{"Gene": "Nes", "reagent no.": 1, "p65 translocation robust z-score": -0.05, "nuclear/cytoplasmic p65 ratio, rep 1": 1.74, "nuclear/cytoplasmic p65 ratio, rep 2": 1.61, "low cell count flag": "enough cells to score", "activity call": "inactive"}
{"Gene": "Fgl1", "reagent no.": 1, "p65 translocation robust z-score": 1.01, "nuclear/cytoplasmic p65 ratio, rep 1": 1.69, "nuclear/cytoplasmic p65 ratio, rep 2": 1.65, "low cell count flag": "enough cells to score", "activity call": "inactive"}

3 of these entries in another layout:
{"Gene":"Rwdd2a","reagent no.":1,"p65 translocation robust z-score":-0.04,"nuclear/cytoplasmic p65 ratio, rep 1":1.39,"nuclear/cytoplasmic p65 ratio, rep 2":1.21,"low cell count flag":"enough cells to score","activity call":"inactive"}
{"Gene":"Pkn1","reagent no.":1,"p65 translocation robust z-score":1.72,"nuclear/cytoplasmic p65 ratio, rep 1":1.82,"nuclear/cytoplasmic p65 ratio, rep 2":1.59,"low cell count flag":"enough cells to score","activity call":"inactive"}
{"Gene":"Ikbip","reagent no.":1,"p65 translocation robust z-score":-0.37,"nuclear/cytoplasmic p65 ratio, rep 1":1.31,"nuclear/cytoplasmic p65 ratio, rep 2":1.41,"low cell count flag":"enough cells to score","activity call":"inactive"}
